The values that follow come from PubChem BioAssay AID2685 (National Center for Advancing Translational Sciences (NCATS), 2010).

The experiment in a line: qHTS Assay for Lipid Storage Modulators in Drosophila S3 Cells.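 On cell number change: cells counted by Cell Tracker Red CMTPX staining in the red channel.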 Conditions: BODIPY lipid droplet fluorescence, 18-24 h; for cell number change: measured here: cell count max response, cells fed with added oleic acid. An outline of the steps: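 Laser-scanning cytometry quantifies lipid droplet accumulation (500–530 nm total intensity; droplet/cell object ratio) in oleic acid-fed (400 uM added) Drosophila S3 cells treated with a concentration series. 20 uM Triacsin C defined 100% inhibition.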
On the technique in general: In qHTS, concentration-response curves come from the screen itself.

The mark [1] stands for this setting: measured here: lipid fluorescence (Fed channel) AC50, cells fed with added oleic acid.
Where [2] appears, read: measured here: cell number channel AC50, cells fed with added oleic acid.

Some of the results follow. The main result of the screen is listed elsewhere. These columns were measured beside it and carry no call. Most of these compounds were active or inconclusive in the main read-out, so they are no random draw. Potencies come from curve fits of mixed quality, noted in brackets.

What is called AC50 is the midpoint of the concentration-response curve, whichever way the signal moves.

With `CC(=O)Nc1nc(-c2ccccc2)c(-c2ccccc2)o1`, the cell number change worked out at 7.42%. In addition, the AC50 under setting [1] was 0.0517 µM [falling, full curve, poor fit].

With `O=C(NCc1cccs1)C1CC(=O)N(c2ccc(Cl)cc2)C1` (centres undefined), the cell number change was determined as 13.7%. In addition, the AC50 under setting [1] was 0.461 µM [falling, single point].

Take `O=C(CSc1cccc[n+]1[O-])c1ccccc1Br`: the cell number change is -19.4%.

Regarding `Cc1ccc(-c2cc(C(F)(F)F)n3nc(C(=O)NCCCn4ccnc4)cc3n2)cc1C`, the AC50 under setting [1] was 0.184 µM [rising, full curve, poor fit].

As to `O=C1CC(/C=C/c2ccccn2)=Nc2ccccc2N1`, the cell number change worked out at 17%.

Take `O=C(CO/N=C1\CCCc2nonc21)Nc1ccc(Br)cc1`: the cell number change is 18.5%. Moreover, the AC50 under setting [1] is 9.2 µM [rising, partial curve].

For `CCC(=O)Nc1cccc(-c2cnc3ccccc3n2)c1`, the cell number change turned out to be 143%. Also, the AC50 under setting [2] was 0.517 µM [rising, full curve]. Moreover, under setting [1], the AC50 was 0.731 µM [rising, partial curve].

As for `CCOc1ccc(NC(=O)c2ccc(Cl)c(NC(=O)c3ccco3)c2)cc1`, the cell number change worked out at 41.8%. Further, the AC50 under setting [2] was 29.1 µM [rising, single point].

Consider `Cc1c(Cl)c([N+](=O)[O-])nn1CCCC(=O)Nc1sc2c(c1C#N)CCC2`, for which the AC50 under setting [2] was 0.82 µM [rising, full curve].

Regarding `CC(C)c1nnc(NC(=O)C2CCCN2S(=O)(=O)c2ccc(Cl)cc2)s1` (centres undefined), the cell number change worked out at 2.08%. Also, the AC50 under setting [1] is 2.59 µM [rising, full curve].

`CC(O)CNc1nc2ccccc2n1-c1ncnc2sc3c(c12)CCC3` (centres undefined): the cell number change was -38.6%. Under setting [2], the AC50 is 23.1 µM [falling, single point]. For the same molecule, the AC50 under setting [1] is 0.731 µM [rising, full curve, poor fit].

For `COc1cccc(NC(=O)C2CCN(S(=O)(=O)c3ccc4c(c3)NC(=O)CO4)CC2)c1`, the cell number change is 12.7%. Under setting [1], the AC50 was 6.51 µM [rising, single point].

Consider `Cc1cccc(C(=O)Nc2nnc(-c3ccncc3)o2)c1`, for which the cell number change was -22.1%.

In the case of `Cc1nc2nc(CNC(=O)OC(C)(C)C)nn2c(C)c1CCC(=O)Nc1ccc2c(c1)OCO2`, the cell number change is -23.3%. Further, under setting [1], the AC50 is 29.1 µM [falling, single point].

For `CCCN(CC(=O)Nc1c(C)cccc1CC)C(=O)SCC`, the cell number change is 12%. Also, the concentration at half-maximal activity (AC50) under setting [1] is 0.58 µM [rising, single point].

On to `Oc1cc2ccccc2nc1-c1ccccc1Cl`, for which the cell number change was -31.1%. Moreover, under setting [2], the AC50 was 23.1 µM [falling, single point].

`Cc1cc(C)c2sc(N(CCN(C)C)C(=O)c3ccc4ccccc4c3)nc2c1`: the cell number change is 4.89%. For the same molecule, the AC50 under setting [1] is 29.1 µM [rising, single point].

As for `Cc1nn(CC(=O)NCc2cc3ccccc3[nH]2)c(C)c1[N+](=O)[O-]`, the cell number change is -19.8%.

For the molecule `CCC(Sc1nc2ccccc2o1)C(=O)Nc1nnc(C)s1` (centres undefined), the cell number change is -44.7%. Besides, the AC50 under setting [2] was 0.58 µM [falling, full curve, poor fit]. Also, under setting [1], the AC50 is 1.84 µM [falling, full curve, poor fit].

For the molecule `CCc1ccc2c(COC(=O)CNS(=O)(=O)c3ccc(NC(C)=O)cc3)cc(=O)oc2c1`, the cell number change was found to be 14.8%. Further, the AC50 under setting [1] was 14.6 µM [rising, partial curve].

On to `COCCNC(=O)c1c(N)n(CCCn2ccnc2)c2nc3ccccc3nc12`, for which the cell number change is 23.6%. In addition, the AC50 under setting [2] is 0.291 µM [rising, full curve]. For the same molecule, under setting [1], the half-maximal activity concentration (AC50) is 18.4 µM [rising, partial curve].

Turning to `Cc1ccc(N(CC(=O)NC2CCCC2)C(=O)CNC(=O)c2cccs2)cc1F`, the cell number change was determined as 18.7%. Under setting [1], the AC50 was 29.1 µM [rising, partial curve].

On to `COc1ccccc1-n1cnc2cc(NC(C)=O)ccc21`, for which the cell number change turned out to be 11%.

`CCS(=O)(=O)c1ccc2oc(SCC(=O)N3CCCCC3)nc2c1`: the cell number change came out at 55.6%. For the same molecule, the AC50 under setting [2] was 16.4 µM [rising, partial curve]. For the same molecule, the AC50 under setting [1] is 18.4 µM [rising, partial curve, poor fit].

Take `COc1cc(C)c(S(=O)(=O)NCCCn2ccnc2)cc1C`: the cell number change was -19.9%. Also, under setting [1], the AC50 was 29.1 µM [falling, single point].

Regarding `COc1cc(C(=O)Nc2ccc(S(=O)(=O)NC(C)(C)C)cc2)cc(OC)c1OC`, the cell number change is 51%. Moreover, the AC50 under setting [2] is 3.66 µM [rising, partial curve]. Under setting [1], the AC50 was 1.84 µM [rising, partial curve].

`COc1ccccc1C(=O)NCCC(=O)NC(C)CCc1ccccc1` (centres undefined): the cell number change was -6.34%.

For the molecule `COc1ccc(C)cc1S(=O)(=O)N(CC(=O)O)c1ccc(C)cc1`, the cell number change was determined as 15.8%. Also, under setting [1], the concentration at half-maximal activity (AC50) is 18.4 µM [rising, single point].

With `O=C(c1cccc([N+](=O)[O-])c1)N1CCc2ccccc21`, the cell number change was found to be 13.7%. Further, the AC50 under setting [1] was 0.00461 µM [falling, full curve, poor fit].

Consider `N#Cc1cc2c(nc1SCC(=O)N1CCCCC1)CCCC2`, for which the cell number change turned out to be 10.6%. Moreover, the AC50 under setting [1] was 29.1 µM [rising, single point].

Turning to `O=C(NC1CCN(Cc2ccccc2)CC1)c1ccccc1OCc1ccccc1Cl`, the cell number change was -13.8%. Also, the AC50 under setting [1] was 25.9 µM [falling, single point].

For `CCCN(C(=O)CN1C(=O)NC2(CCCCCC2)C1=O)C1CCS(=O)(=O)C1` (centres undefined), the cell number change is -27.6%. Further, the AC50 under setting [1] was 13 µM [falling, partial curve].

Regarding `Cc1ccc(C(=O)Nc2nc3ccc(S(C)(=O)=O)cc3s2)s1`, the cell number change is -37.5%. Under setting [2], the AC50 is 20.6 µM [falling, single point]. The AC50 under setting [1] is 29.1 µM [falling, single point].

On to `N=c1sccn1CC(=O)Nc1ccc(S(=O)(=O)N2CCOCC2)cc1`, for which the cell number change is -0.349%. Also, the AC50 under setting [1] was 0.0651 µM [falling, full curve, poor fit].

`Oc1ccccc1N1CCN(c2ncnc3scc(-c4ccccc4)c23)CC1`: the AC50 under setting [1] was 0.82 µM [falling, full curve].

For the molecule `O=C(CN1C(=O)NC2(CCCC2)C1=O)Nc1cccc(Cl)c1`, the cell number change turned out to be 4.62%.

In the case of `CCOC(=O)c1cc2sc(C)cc2n1CC(=O)Nc1ccc2c(c1)OCCO2`, the cell number change is -59.1%. For the same molecule, the AC50 under setting [2] is 3.26 µM [falling, partial curve, poor fit]. Besides, the AC50 under setting [1] is 8.2 µM [falling, partial curve].

As to `CC1(C)C2CC=C(/C=N/NC(=O)C3CC3)C1C2` (centres undefined), the AC50 under setting [1] is 4.11 µM [falling, partial curve].

On to `O=C(NCc1ccco1)C1CCN(S(=O)(=O)c2cccc([N+](=O)[O-])c2)CC1`, for which the cell number change was -2.63%.
